Patent EP0866075B1, “Method to treat microbial infections by uncoupling of phosphotransferase system and appropriate agents therefor” (Arpida AG,, priority 1997, dated 1998)
Not every detail of the peptide structures is certain; ends, links or a residue may be inferred. No end group written: not given here.

System: E. coli K-12 UT580
Experiment: Growth inhibition assay (filter discs on LB soft agar)
Format: cell-based
Conditions: area of the clear zone around filter disc, E. coli K-12 UT580, over night at 37°C
Excerpt: Fig. 4. Growth inhibition of E. coli K12 UT580. […]

| Substance | growth inhibition (area/µM) |
| --- | --- |
| RHWSIF [compound 24, RHWSIF] | 1.30 |
| GLRFGKTRVHYLVLG [compound 14] | 3.65 |
| RLHYLF [compound 21, RLHYLF] | 0.90 |
| RHITLF [compound 28, RHITLF] | 0.27 |
| RIHFIPRRGR [compound 20] | 0.77 |
| RHYLLF [compound 26, RHYLLF] | 0.83 |
| SGRKSTRVHHWLLVL [compound 15] | 3.05 |
